This passage reports binding results from article PMC7578860.

For the assay, the target named is P/G rich domain of KSRP (Flag‐tagged KSRP deletion mutant) (human). The experiment in a line: co-IP; HEK293T cells cotransfected with a full-length partner and tagged deletion mutants or segments of the other (Figure 4E, 4F); antibodies to Myc and Flag; western blot. In general terms: Immunoblotting shows a protein as a band on a membrane.

These are yes or no findings as the source states them, for the method shown. In cells and extracts the contact can be indirect. Binding calls can cover weak binding; strength is not graded here. Sequences can lack the tags named with a protein.

B1: Myc‐tagged full‐length FBXW2 (in HEK293T cells) (protein, UniProt Q9UKT8 1-454)
chain: MERKDFETWLDNISVTFLSLTDLQKNETLDHLISLSGAVQLRHLSNNLETLLKRDFLKLLPLELSFYLLKWLDPQTLLTCCLVSKQWNKVISACTEVWQTACKNLGWQIDDSVQDALHWKKVYLKAILRMKQLEDHEAFETSSLIGHSARVYALYYKDGLLCTGSDDLSAKLWDVSTGQCVYGIQTHTCAAVKFDEQKLVTGSFDNTVACWEWSSGARTQHFRGHTGAVFSVDYNDELDILVSGSADFTVKVWALSAGTCLNTLTGHTEWVTKVVLQKCKVKSLLHSPGDYILLSADKYEIKIWPIGREINCKCLKTLSVSEDRSICLQPRLHFDGKYIVCSSALGLYQWDFASYDILRVIKTPEIANLALLGFGDIFALLFDNRYLYIMDLRTESLISRWPLPEYRKSKRGSSFLAGEASWLNGLDGHNDTGLVFATSMPDHSIHLVLWKEHG
For the molecule B1, the binding result was “binds”.
